Measurements as given in the supplement of paper PMC12823440, “Inhibitors supercharge kinase turnover through native proteolytic circuits” (Nature, 2025).
Counter-ions that a name gives are not always drawn. Some of the results follow. Hit calls seldom repeat between salt and free forms of one compound.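 Kinases were expressed as nanoluciferase fusions in K562 cells and luminescence was read every 4 h between 2 and 18 h as percent of control, DMSO set to 100% and a positive control to 0%. A time point counts as decreased when the signal drops significantly (2 sigma). The hit call is the authors' own, does not follow from the count of time points alone, and its rule is not shown.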

By UniProt entry, the sequences of proteins in these tests, tags left out. Where a name states a change or a piece, a line headed by the entry shows the natural chain unless it says otherwise.
UniProt Q9Y616: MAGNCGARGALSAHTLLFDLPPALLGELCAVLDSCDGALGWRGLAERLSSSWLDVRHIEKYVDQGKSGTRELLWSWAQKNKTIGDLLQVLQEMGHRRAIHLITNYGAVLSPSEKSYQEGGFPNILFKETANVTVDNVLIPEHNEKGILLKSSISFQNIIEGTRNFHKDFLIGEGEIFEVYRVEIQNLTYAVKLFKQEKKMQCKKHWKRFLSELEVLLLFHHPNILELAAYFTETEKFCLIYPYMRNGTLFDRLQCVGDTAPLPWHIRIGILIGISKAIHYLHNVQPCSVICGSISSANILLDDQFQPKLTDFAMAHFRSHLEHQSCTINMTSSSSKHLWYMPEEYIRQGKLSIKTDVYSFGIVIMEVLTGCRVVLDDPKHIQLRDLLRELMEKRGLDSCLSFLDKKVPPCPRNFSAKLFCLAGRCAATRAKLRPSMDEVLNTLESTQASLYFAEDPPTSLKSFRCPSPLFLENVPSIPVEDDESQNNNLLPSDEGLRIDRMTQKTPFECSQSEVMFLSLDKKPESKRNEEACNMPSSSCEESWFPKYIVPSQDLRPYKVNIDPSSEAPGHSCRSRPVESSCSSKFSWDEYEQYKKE
UniProt P23458: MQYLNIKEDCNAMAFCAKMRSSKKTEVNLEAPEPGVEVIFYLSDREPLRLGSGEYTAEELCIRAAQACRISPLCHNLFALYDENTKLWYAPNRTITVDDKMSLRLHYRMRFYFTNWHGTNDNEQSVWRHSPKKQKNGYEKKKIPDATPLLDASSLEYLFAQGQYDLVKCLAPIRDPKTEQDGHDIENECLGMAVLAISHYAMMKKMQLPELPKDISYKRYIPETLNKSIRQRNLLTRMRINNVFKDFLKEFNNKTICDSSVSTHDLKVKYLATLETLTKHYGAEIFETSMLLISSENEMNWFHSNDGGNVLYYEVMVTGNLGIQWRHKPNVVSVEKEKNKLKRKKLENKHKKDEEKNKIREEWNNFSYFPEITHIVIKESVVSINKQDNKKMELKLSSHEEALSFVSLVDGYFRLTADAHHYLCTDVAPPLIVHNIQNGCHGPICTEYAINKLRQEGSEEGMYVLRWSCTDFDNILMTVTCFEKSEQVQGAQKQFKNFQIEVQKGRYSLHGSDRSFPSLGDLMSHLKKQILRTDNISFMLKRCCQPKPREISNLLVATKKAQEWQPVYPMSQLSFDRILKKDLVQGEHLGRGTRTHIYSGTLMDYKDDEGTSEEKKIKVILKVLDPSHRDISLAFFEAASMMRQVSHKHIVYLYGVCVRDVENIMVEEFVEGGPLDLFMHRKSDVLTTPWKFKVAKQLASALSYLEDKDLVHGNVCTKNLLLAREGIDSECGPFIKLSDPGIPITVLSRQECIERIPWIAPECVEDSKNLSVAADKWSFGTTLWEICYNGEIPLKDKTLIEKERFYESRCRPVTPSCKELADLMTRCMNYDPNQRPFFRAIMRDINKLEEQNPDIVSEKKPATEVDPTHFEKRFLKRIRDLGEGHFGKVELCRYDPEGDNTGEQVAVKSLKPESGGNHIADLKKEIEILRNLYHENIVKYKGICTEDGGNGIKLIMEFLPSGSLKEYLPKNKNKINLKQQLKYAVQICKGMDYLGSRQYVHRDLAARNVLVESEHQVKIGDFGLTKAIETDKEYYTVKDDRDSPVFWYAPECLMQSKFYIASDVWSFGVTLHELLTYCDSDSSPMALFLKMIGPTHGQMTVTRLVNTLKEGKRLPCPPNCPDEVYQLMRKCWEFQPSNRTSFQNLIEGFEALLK
UniProt P06239: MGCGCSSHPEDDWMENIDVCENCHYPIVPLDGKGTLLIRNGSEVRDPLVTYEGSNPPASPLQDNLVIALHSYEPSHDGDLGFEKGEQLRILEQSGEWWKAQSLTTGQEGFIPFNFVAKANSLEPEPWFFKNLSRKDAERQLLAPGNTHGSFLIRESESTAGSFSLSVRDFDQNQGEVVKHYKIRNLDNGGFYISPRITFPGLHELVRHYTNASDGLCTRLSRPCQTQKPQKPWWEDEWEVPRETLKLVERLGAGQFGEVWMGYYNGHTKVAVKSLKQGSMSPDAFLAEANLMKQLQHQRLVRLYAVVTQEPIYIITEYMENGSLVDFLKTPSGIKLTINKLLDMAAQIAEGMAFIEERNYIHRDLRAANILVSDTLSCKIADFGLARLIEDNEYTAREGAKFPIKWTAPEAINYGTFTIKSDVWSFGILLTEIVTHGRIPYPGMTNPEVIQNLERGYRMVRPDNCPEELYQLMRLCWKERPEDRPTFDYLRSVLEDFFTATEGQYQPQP
UniProt P53667: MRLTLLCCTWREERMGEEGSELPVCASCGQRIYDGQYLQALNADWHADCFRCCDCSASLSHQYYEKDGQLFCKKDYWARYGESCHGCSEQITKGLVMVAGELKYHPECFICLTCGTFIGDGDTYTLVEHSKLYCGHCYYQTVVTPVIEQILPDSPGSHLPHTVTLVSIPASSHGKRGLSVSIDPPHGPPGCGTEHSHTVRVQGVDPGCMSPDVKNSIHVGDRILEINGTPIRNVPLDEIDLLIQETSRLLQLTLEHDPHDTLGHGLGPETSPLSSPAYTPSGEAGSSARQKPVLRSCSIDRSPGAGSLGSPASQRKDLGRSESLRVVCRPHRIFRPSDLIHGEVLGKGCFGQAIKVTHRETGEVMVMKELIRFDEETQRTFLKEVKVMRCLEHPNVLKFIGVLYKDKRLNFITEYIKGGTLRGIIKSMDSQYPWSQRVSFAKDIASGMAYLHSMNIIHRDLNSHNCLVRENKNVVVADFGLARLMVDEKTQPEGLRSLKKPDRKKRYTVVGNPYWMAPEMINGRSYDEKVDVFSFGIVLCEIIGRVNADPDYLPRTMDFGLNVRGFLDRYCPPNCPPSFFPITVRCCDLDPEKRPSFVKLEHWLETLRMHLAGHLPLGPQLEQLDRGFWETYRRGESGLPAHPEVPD
UniProt P53671: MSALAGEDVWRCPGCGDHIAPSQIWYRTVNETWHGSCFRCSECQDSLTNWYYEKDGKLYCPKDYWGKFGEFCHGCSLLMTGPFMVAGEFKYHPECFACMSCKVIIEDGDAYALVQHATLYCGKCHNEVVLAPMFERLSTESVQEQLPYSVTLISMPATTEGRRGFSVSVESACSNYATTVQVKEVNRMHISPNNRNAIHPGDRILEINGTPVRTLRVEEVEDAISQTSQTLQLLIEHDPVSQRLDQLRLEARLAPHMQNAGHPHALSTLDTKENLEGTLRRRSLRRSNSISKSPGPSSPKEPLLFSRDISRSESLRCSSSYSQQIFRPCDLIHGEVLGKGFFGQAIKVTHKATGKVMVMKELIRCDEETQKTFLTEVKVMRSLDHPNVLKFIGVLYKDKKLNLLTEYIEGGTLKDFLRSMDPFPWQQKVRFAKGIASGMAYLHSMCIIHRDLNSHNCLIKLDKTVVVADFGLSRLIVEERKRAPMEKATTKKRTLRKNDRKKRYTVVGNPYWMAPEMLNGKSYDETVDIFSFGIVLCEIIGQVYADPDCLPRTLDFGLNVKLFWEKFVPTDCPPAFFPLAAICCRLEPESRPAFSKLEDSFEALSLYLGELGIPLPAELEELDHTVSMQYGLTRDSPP
UniProt Q8IWU2: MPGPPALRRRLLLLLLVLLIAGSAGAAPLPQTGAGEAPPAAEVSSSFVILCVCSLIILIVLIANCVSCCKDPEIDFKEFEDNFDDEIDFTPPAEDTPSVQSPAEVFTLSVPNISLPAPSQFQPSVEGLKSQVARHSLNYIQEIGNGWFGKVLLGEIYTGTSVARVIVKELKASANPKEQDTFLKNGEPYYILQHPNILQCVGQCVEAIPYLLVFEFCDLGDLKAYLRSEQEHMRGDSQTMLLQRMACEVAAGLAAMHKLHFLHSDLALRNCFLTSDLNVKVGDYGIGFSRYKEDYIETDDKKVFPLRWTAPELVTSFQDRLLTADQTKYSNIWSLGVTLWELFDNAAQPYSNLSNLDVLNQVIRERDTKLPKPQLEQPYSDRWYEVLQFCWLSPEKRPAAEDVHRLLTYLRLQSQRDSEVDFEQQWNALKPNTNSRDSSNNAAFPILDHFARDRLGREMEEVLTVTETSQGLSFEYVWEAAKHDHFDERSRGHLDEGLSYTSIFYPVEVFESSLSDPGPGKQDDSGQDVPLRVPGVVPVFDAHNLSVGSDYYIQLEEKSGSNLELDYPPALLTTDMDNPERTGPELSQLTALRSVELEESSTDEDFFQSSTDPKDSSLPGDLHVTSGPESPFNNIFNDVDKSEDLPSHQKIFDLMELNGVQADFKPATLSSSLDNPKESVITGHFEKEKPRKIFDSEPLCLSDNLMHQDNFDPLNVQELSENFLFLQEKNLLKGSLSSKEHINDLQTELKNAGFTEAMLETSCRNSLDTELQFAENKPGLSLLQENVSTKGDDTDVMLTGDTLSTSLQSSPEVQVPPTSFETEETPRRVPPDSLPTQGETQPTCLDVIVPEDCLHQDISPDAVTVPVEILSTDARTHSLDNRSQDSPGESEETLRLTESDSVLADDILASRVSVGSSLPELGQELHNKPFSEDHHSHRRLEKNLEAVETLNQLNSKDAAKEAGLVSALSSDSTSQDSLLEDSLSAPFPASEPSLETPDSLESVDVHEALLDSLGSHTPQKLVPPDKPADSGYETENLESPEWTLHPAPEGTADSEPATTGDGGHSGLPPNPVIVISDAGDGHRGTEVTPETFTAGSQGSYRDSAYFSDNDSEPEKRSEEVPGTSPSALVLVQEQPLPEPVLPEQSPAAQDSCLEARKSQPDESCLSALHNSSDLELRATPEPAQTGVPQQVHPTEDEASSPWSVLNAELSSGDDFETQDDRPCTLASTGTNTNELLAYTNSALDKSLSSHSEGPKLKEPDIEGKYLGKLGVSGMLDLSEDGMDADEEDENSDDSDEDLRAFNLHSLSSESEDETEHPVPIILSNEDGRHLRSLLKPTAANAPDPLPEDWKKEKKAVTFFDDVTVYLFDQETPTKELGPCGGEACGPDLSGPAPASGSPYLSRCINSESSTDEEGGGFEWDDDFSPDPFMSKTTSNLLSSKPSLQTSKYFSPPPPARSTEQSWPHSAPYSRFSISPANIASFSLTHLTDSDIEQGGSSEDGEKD
UniProt P07948: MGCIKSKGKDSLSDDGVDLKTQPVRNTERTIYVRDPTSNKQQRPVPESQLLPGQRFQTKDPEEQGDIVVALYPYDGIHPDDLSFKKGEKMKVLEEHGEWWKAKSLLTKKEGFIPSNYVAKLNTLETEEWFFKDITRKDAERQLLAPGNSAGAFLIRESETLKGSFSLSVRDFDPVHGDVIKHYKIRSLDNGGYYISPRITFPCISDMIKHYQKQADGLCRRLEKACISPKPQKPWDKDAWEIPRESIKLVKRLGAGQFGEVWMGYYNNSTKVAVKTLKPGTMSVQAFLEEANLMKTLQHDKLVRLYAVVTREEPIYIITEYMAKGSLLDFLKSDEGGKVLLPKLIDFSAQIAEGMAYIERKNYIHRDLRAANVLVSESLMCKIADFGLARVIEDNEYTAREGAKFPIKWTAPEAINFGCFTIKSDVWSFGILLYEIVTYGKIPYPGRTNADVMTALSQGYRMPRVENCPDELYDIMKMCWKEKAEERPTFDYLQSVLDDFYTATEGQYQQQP
UniProt Q12851: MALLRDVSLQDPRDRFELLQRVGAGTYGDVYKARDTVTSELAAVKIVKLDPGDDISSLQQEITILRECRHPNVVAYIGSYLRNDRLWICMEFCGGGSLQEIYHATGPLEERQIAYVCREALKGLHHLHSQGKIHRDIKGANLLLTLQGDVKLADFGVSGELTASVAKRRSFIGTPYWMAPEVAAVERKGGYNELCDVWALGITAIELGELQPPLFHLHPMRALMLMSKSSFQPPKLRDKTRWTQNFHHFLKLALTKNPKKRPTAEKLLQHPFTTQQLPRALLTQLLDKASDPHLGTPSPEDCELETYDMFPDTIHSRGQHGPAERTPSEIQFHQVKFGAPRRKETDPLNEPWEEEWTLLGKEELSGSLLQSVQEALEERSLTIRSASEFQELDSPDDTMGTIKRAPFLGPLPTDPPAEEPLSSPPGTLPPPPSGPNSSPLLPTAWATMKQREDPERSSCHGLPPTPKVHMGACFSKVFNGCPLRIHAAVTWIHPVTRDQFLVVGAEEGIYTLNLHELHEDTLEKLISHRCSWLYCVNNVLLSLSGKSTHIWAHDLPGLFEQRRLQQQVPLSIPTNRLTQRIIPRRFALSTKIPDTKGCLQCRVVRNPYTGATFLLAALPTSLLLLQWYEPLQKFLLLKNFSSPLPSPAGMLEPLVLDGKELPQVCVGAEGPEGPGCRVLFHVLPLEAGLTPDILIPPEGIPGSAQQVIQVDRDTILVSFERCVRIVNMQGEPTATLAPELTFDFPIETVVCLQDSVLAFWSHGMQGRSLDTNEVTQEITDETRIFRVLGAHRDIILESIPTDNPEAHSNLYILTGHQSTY

Legend:
Test in all cases: kinase-Nluc reporter destabilization hit call (1 = scored as downregulated) (binary); higher = compound decreases kinase abundance
Settings in all cases: K562; 2-18 h
IRAK3 = IRAK3 (UniProt Q9Y616)
JAK1 = JAK1 (UniProt P23458)
LCK = LCK (UniProt P06239)
LIMK1 = LIMK1 (UniProt P53667)
LIMK2 = LIMK2 (UniProt P53671)
LMTK2 = LMTK2 (UniProt Q8IWU2)
LYN = LYN (UniProt P07948)
MAP2K1 = MAP2K1 (UniProt Q02750)
MAP2K2 = MAP2K2 (UniProt P36507)
MAP4K2 = MAP4K2 (UniProt Q12851)

Measured: kinase-Nluc reporter destabilization hit call

Nc1nc(N)c2nc(-c3cccc(O)c3)c(-c3cccc(O)c3)nc2n1 (10 µM)
inactive: IRAK3 = 0 | JAK1 = 0 | LCK 0 | LIMK1 = 0 | LIMK2 = 0 | LMTK2 = 0 | LYN 0 | MAP2K1 = 0 | MAP2K2 = 0 | MAP4K2 = 0

Cc1c(C(=O)Nc2ccc(Oc3ccnc4[nH]cc(-c5ccccc5)c34)c(F)c2)c(=O)n(-c2ccc(F)cc2)n1C (10 µM)
inactive: IRAK3 = 0 | JAK1 = 0 | LCK 0 | LIMK1 = 0 | LIMK2 = 0 | LMTK2 = 0 | LYN 0 | MAP2K1 = 0 | MAP2K2 = 0 | MAP4K2 = 0

Cc1cc(C(=O)NC(C)(C)C)cc(C#Cc2ccc3c4c(oc3c2)C(C)(C)c2cc(NS(C)(=O)=O)ccc2C4=O)n1 (10 µM)
inactive: IRAK3 = 0 | JAK1 = 0 | LCK 0 | LIMK1 = 0 | LIMK2 = 0 | LMTK2 = 0 | LYN 0 | MAP2K1 = 0 | MAP2K2 = 0 | MAP4K2 = 0

C=CC(=O)Nc1cc(Nc2nccc(-c3cn(C)c4ccccc34)n2)c(OC)cc1N(C)CCNC [AZ7550 Mesylate] (2.5 µM)
inactive: IRAK3 = 0 | JAK1 = 0 | LCK 0 | LIMK1 = 0 | LIMK2 = 0 | LMTK2 = 0 | LYN 0 | MAP2K1 = 0 | MAP2K2 = 0 | MAP4K2 = 0

COCCOc1ccc2c(c1)ncn2-c1ccc2cccc(N3CCC(N)CC3)c2n1 (10 µM)
inactive: IRAK3 = 0 | JAK1 = 0 | LCK 0 | LIMK1 = 0 | LIMK2 = 0 | LMTK2 = 0 | LYN 0 | MAP2K1 = 0 | MAP2K2 = 0 | MAP4K2 = 0

Cc1ccc(NC(=O)Nc2cc(C(F)(F)F)ccc2F)cc1Nc1ccc2c(c1)NC(=O)/C2=C\c1ccc[nH]1 (2.5 µM)
inactive: IRAK3 = 0 | JAK1 = 0 | LCK 0 | LIMK1 = 0 | LIMK2 = 0 | LMTK2 = 0 | LYN 0 | MAP2K1 = 0 | MAP2K2 = 0 | MAP4K2 = 0

CCN1CCN(Cc2cnc(Nc3cc(-c4cc(F)c5nc(C)n(C(C)C)c5c4)c(F)cn3)nc2)CC1 (10 µM)
inactive: IRAK3 = 0 | JAK1 = 0 | LCK 0 | LIMK1 = 0 | LIMK2 = 0 | LMTK2 = 0 | LYN 0 | MAP2K1 = 0 | MAP2K2 = 0 | MAP4K2 = 0
